Patent publication US4479941A, “Renin inhibitory peptides having PHE^13 delection” (Merck & Co., Inc., priority 1982, dated 1984)
At least one structure is not confirmed: it was looked up by name or label, or the drawing left a doubt. Square brackets hold non-standard residues; d marks the D form. Peptide text beside a SMILES is read from it. * marks the point of attachment. Sta = CC(C)C[C@H](N)[C@@H](O)CC(=O)O; X4 = c1ccc2c(c1)CCc1ccccc1C2N*; Boc = CC(C)(C)OC(=O)*

Sequences of proteins named here, by UniProt entry; tags and fusion partners are left off. Residues count along the entry.
UniProt A0A287APG1, 67-407: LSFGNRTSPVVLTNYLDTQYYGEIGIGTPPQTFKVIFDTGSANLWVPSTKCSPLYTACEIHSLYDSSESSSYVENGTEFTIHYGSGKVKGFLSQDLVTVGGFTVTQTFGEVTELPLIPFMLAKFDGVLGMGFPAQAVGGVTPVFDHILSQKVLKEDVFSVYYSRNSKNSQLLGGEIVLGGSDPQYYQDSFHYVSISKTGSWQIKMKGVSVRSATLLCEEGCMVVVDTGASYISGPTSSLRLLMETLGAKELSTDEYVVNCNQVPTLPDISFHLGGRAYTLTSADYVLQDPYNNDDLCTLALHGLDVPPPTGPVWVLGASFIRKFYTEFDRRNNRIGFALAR

molecular target: hog kidney renin (Sus scrofa, UniProt A0A287APG1); assay: Hog renin inhibition; type: biochemical; conditions: pH 7.3, read-out: I50 (concentration of peptide inhibitor necessary to produce 50% inhibition of renin activity)
Method: An assay was carried out in order to determine the inhibitory potency of the peptides of the present invention.

SMILES	IC50
CC(C)C[C@H](NC(=O)C[C@H](O)[C@H](CC(C)C)NC(=O)[C@H](Cc1c[nH]cn1)NC(=O)[C@H](Cc1ccccc1)NC(=O)OC(C)(C)C)C(=O)NC(C)c1ccccc1 (single isomer, unassigned) [BOC--Phe--His--Sta--Leu--(+)-α-phenylethylamide] [BOC--Phe-His-Sta-Leu-(+)-α-phenylethylamide]	14 nM
CC(C)C[C@H](NC(=O)C[C@H](O)[C@H](CC(C)C)NC(=O)[C@H](Cc1c[nH]cn1)NC(=O)[C@H](Cc1ccccc1)NC(=O)OC(C)(C)C)C(=O)NC(C)c1ccccc1 (single isomer, unassigned) [BOC--Phe--His--Sta--Leu--(-)-α-phenylethylamide] [BOC--Phe-His-Sta-Leu-(-)-α-phenylethylamide]	22 nM
CC(C)C[C@H](NC(=O)C[C@H](O)[C@H](CC(C)C)NC(=O)[C@H](Cc1c[nH]cn1)NC(=O)[C@H](Cc1ccccc1)NC(=O)OC(C)(C)C)C(=O)NC1c2ccccc2CCc2ccccc21 [BOC--Phe-His-Sta-Leu-10,11-dihydro-5H-dibenzo[a,d]-cyclohepteneamide] (Boc-FH[Sta]L-X4)	5.8 nM
